Data: patent US10928381B2, “In vitro methods of monitoring autophagy in a human cell using a photoconvertable fluorescent protein linked biomarker” (The Regents of the University of Michigan, priority 2018, dated 2021)
For at least one compound, name, drawing or mass did not settle the structure.

Tested on: Dendra2-LC3 HEK cells
Assay: Native (green, GFP) Dendra2-LC3 intensity and puncta, phase I primary screen readout (T15/T0)
Format: cell-based, human
Conditions: Prestwick and Enzo collections, 15 h
Description: Conventional methods for estimating autophagy flux rely upon the assessment of LC3 or other autophagy substrates by Western blotting or immunocytochemistry (Ref. 27; herein incorporated by reference in its entirety); by their very nature, these techniques are static and limited to dead cells. Fluorescence-based methods that use tagged substrates allow visualization of autophagy within living cells, but typically require the overexpression of autophagy target proteins that may disrupt the very process they are intended to measure. To assess autophagy in human cells without compromising or interfering with the pathway, experiments were conducted during development of embodiments herein utilizing CRISPR/Cas9 genome editing (Refs. 29-30; herein incorporated by reference in their entireties) to insert the Dendra2 open reading frame into the MAP1LC3B locus (encoding LC3) of HEK cells (FIG. 2a). […] Two separate single guide RNAs (sgRNAs) were designed that recognize sequences just upstream and downstream of the MAP1LC3B start codon, and a homology directed repair (HDR) vector encoding the Dendra2 open reading frame flanked by 400 bp of homologous sequence surrounding the MAP1LC3B start codon (FIG. 2a). Following expression of the sgRNAs, Cas9n and the HDR in HEK cells, colonies were selected based upon green fluorescence and passaged to homogeneity (FIG. 2b). […]

`CO[C@H]1C[C@@H]2CC[C@@H](C)[C@@](O)(O2)C(=O)C(=O)N2CCCC[C@H]2C(=O)O[C@H]([C@H](C)C[C@@H]2CC[C@@H](O)[C@H](OC)C2)CC(=O)[C@H](C)/C=C(\C)[C@@H](O)[C@@H](OC)C(=O)[C@H](C)C[C@H](C)/C=C/C=C/C=C/1C` [Rapamycin] was tested, and the “Phase I result, normalized GFP intensity (T15/T0)” value was “autophagy inducers”.
